These are yes or no findings as the source states them, for the method shown. In cells and extracts the contact can be indirect. Some results given as binding are weak or reduced against the parent protein; the word gives no strength.

The chains behind the UniProt entries cited, without tags or fusion partners. Residues count along the entry.
UniProt Q03188, residues 723-943: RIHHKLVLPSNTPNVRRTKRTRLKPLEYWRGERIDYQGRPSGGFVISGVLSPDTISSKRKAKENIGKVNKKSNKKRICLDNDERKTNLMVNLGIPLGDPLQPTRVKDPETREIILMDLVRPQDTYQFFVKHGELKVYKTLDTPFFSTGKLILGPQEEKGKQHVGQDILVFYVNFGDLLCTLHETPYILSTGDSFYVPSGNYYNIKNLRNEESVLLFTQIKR

In this test the target is GST-Prescission-hsCENP-C^723-943 (human) (UniProt Q03188). Description: pull-down.

B1: HsM18BP1^325-480 (domain or fragment, UniProt Q6P0N0 325-480)
chain: TVPGETGLPGSMKDTCKIVLATPRLHITIPRRSKRNISKLSPPRIFQTVTNGLKKNQVVQLQEWMIKSINNNTAICVEGKLIDVTNIYWHSNVIIERIEHNKLRTISGNVYILKGMIDQISMKEAGYPNYLIRKFMFGFPENWKEHIDNFLEQLRA
Consider B1, for which the binding entry is reported as “binds”.

Values taken from paper doi:10.1101/355487.
